# Assay results reported in PubChem BioAssay AID493014 (National Center for Advancing Translational Sciences (NCATS), 2011).
# The whole screen tested about 340,000 compounds, of which about 170 (0.05%) were called active. Inconclusive means that the source gave no clear call. Such entries were picked first, then a sample of the others. The call rests on the fitted dose curve; in most records, active means well fitted inhibition curve with a large enough effect in the signal ratio, with a control signal flat (not every such curve was filed as active); inconclusive means small, poorly fitted or top-dose-only effect, or effect the other way, or a change in a side signal; inactive means flat fitted curve, though single readings scatter; the % refers to the signal ratio. A potency beside an inconclusive call is a rough fit, not a confirmed value.
# Assay: qHTS Assay to Find Inhibitors of Chronic Active B-Cell Receptor Signaling;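 on activity change, negative = inhibition: plate controls were basal doxycycline-induced cells for no effect and cells given 10 µM MG132 for full effect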
# Conditions: ABC-DLBCL IkBa-CBG/CBR reporter, luminescence ratio (green luciferase fused to IkBa over red control in TMD8 lymphoma cells), 4 h; activity change, negative = inhibition: at 46.1 µM (top of the series) unless noted
# How it was run: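 Compounds up to 46 uM were incubated four hours with TMD8 cells whose green CBG68 luciferase is fused to IkappaBalpha; red CBR luminescence normalised the signal, and concentration-effect curves were fitted to fusion, red and ratio data.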
# Potency means the concentration at half of the fitted maximal effect.
SMILES,"activity change, negative = inhibition",Potency
Cc1cccc(C)c1N=Nc1c(C)cc(O)cc1C,inconclusive: 13.2%,–
CN(C)CC#CCCCCCCC#CCN(C)C,inconclusive: 0.386%,–
CC(=O)c1ccc(N2CCN(C(=S)Nc3ccccc3F)CC2)cc1,–,"inconclusive: 20.6 µM [rising, partial curve, poor fit]"
Cc1cc(NC(=O)Cc2cccs2)nn1CC(=O)NCc1ccco1,inconclusive: -4.37%,–
O=C(Cc1ccc(Br)cc1)Nc1ccc(S(=O)(=O)N2CCCC2)cc1,inactive,–
Cc1nc(Nc2cccc(Cl)c2)c2oc3ccccc3c2n1,inconclusive: 7.75%,–
CCc1ccccc1NC(=S)NCc1ccc2c(c1)OCO2,inactive,–
Cc1cc(C)n2nc(SCC(=O)Nc3ccc(O)cc3)nc2n1,inactive,–
COc1ccc(-n2cc(-c3ccc(Br)cc3)[nH]c2=S)cc1,inactive,–
CC(=O)c1cccc(NC(=S)NC(=O)CC(C)C)c1,inconclusive: -6.49%,–
Cc1ccccc1C(=O)NC(=S)NCc1cccnc1,inactive,–
COc1ccc(-c2nc(N/N=C(\C)c3ccc(O)cc3)c3ccccc3n2)cc1,–,"inconclusive: 2.51 µM [rising, partial curve, poor fit]"
CCCSCCCNC(=O)CC1Oc2ccccc2NC1=O (stereo not given),inconclusive: -24.7%,–
COC(=O)c1cc(NC(=O)c2ccccc2)c(=O)oc1C,–,"inconclusive: 15.8 µM [falling, partial curve]"
Cc1ccccc1C(=O)N1CCN(CCNC(=O)C(=O)Nc2ccc(Br)cc2)CC1,inconclusive: -8.1%,–
Cc1ccc(C(C)C)c(OCCNC(=S)Nc2cccc3ccccc23)c1,–,"inconclusive: 29.1 µM [activator, single point]"
Cc1cc(C)n(CCc2nc(-c3ccc(C(C)(C)C)cc3)cs2)n1,–,"inconclusive: 20.6 µM [falling, single point]"
Cc1cc(C)n(CC(=O)NNC(=O)COc2ccc(Cl)cc2Cl)n1,inconclusive: -0.587%,–
COc1ccc2oc(C)c(C(N)=O)c2c1,inactive,–
CCOC(=O)c1sc(NC(=O)c2ccccc2)cc1C,–,"inconclusive: 23.1 µM [falling, partial curve]"
Cc1ccc(OC/C(O)=C(\C#N)c2nc3ccccc3s2)cc1,inconclusive: -21.5%,–
CC1CCN(C(=S)NC(=O)c2ccccc2)CC1,inactive,–

# Some values from the list:
# `Cc1ccc(C(C)C)c(OCCNC(=S)Nc2cccc3ccccc23)c1` – Potency: inconclusive: 29.1 µM [activator, single point]
# `Cc1cc(C)n(CCc2nc(-c3ccc(C(C)(C)C)cc3)cs2)n1` – Potency: inconclusive: 20.6 µM [falling, single point]
# `Cc1cc(C)n(CC(=O)NNC(=O)COc2ccc(Cl)cc2Cl)n1` – activity change, negative = inhibition: inconclusive: -0.587%
# `Cc1cc(C)n2nc(SCC(=O)Nc3ccc(O)cc3)nc2n1` – activity change, negative = inhibition: inactive
# `Cc1ccccc1C(=O)NC(=S)NCc1cccnc1` – activity change, negative = inhibition: inactive
# `Cc1ccc(OC/C(O)=C(\C#N)c2nc3ccccc3s2)cc1` – activity change, negative = inhibition: inconclusive: -21.5%

# Continued:

SMILES,"activity change, negative = inhibition",Potency
Fc1ccccc1CNC(=S)Nc1ccc(Cl)cc1,inconclusive: 1.18%,–
Cc1c(C(=O)Nc2ccccc2)oc2c1C(=O)CC(C)(C)C2,inconclusive: -9.93%,–
O=C(CN(Cc1ccccc1)S(=O)(=O)c1ccc(Br)cc1)NCc1ccco1,inconclusive: 16.6%,–
O=C(CCc1ccncc1)NC1CCCc2c1cnn2-c1ccc(F)cc1F (stereo not given),inactive,–
OC(CCN1CCCCC1)(c1ccccc1)C1C[C@@H]2C=C[C@H]1C2 (stereo not given in full),inconclusive: -26.3%,–
O=C(O)CCCC(=O)Nc1cccc(-c2nc3ccccc3[nH]2)c1,inconclusive: 0.754%,–
CCCCN(CC)S(=O)(=O)c1ccc(C(=O)N=c2sc3cc(NC(C)=O)ccc3n2C)cc1,inactive,–
COC(=O)c1cccc(NC(=O)Cc2nc(-c3ccccc3)sc2-c2ccc(C)cc2)c1,inconclusive: 3.41%,–
O=C1/C(=C/c2ccccn2)SC(=S)N1c1ccc(O)cc1,–,"inconclusive: 7.94 µM [falling, partial curve, poor fit]"
CCOc1ccc(NC(=O)c2ccccc2C(=O)c2ccccc2)cc1OCC,inactive,–
COc1cccc2cc(C(=O)NCCC3=CCCCC3)c(=O)oc12,–,"inconclusive: 15.8 µM [falling, partial curve, poor fit]"
O=C(COc1c(Cl)cccc1Cl)NN1C(=O)CSC1=S,inconclusive: -8.04%,–
CN(CC1COc2ccccc2O1)C(=S)NC1CCCCC1 (stereo not given),inconclusive: -0.178%,–
COc1cccc(CNC(=O)c2cc(C3CC3)nc3c2cnn3C(C)C)c1,inconclusive: -1.18%,–
CC(C)c1ccc(NC(=O)C2CCN(c3ncnc4c3nc3n4CCCCC3)CC2)cc1,inactive,–
COc1ccc(C(CC(=O)Nc2nccs2)C(C)C)cc1 (stereo not given),inconclusive: -1.41%,–
CCOC(=O)c1c(NC(=O)CCl)sc(C(=O)N(CC)CC)c1C,–,"inconclusive: 3.26 µM [rising, single point]"
CCOC(=O)C1(Cc2ccccc2)CCN(Cc2ccc(C3CCCCO3)s2)CC1 (stereo not given),inconclusive: -0.584%,–
CC(=O)c1ccc(NC(=O)Nc2sc(NS(=O)(=O)c3ccccc3)nc2C)cc1,inconclusive: 17.9%,–
CCc1cccc(NC(=O)Cn2ncn3c(cc4ccccc43)c2=O)c1,inconclusive: 1.58%,–
Cc1ccc(F)cc1NC(=O)COC(=O)C1CCN(c2ccc(C(F)(F)F)cn2)CC1,inactive,–
COc1ccc(CNC(=O)CN2C(=O)NC3(CCCc4sccc43)C2=O)cc1OC (stereo not given),inconclusive: -1.1%,–

SMILES,"activity change, negative = inhibition",Potency
Cn1cc(/C=C(\C(=O)O)C(C(=O)O)=C2CCCCC2)c2ccccc21,inactive,–
CCOc1ccccc1-c1nc(-c2cc3ccccc3nc2OC)no1,inactive,–
C=C(C)COc1ccc(-c2ncncc2-c2ccc(Br)cc2)c(O)c1,inconclusive: 0.786%,–
Cc1sc(N/N=C/c2ccco2)nc1-c1ccccc1,inconclusive: 0.592%,–
Oc1ccccc1/C=N/Nc1ccccc1,inactive,–
CN(c1ccccc1)S(=O)(=O)c1cccc(C(=O)NCC(=O)Nc2ccc(F)c(F)c2F)c1,inactive,–
O=C(NC(=S)N1CCOCC1)c1ccccc1Cl,–,"inconclusive: 35.5 µM [falling, single point]"
Cc1ccc([N+](=O)[O-])cc1-c1ccc(/C=N/NC(=O)CN2CCOCC2)o1,inconclusive: 0.294%,–
CCOc1ccccc1NC(=O)c1c(NCc2ccc(C)o2)sc2c1CCCCC2,inactive,–
CC1=C(C(=O)OCc2ccccc2)C(c2ccc3ccccc3c2)NC(=O)N1CCCC(=O)O (stereo not given),–,"inconclusive: 28.2 µM [falling, partial curve]"
Brc1ccc(OCCCCCN2CCOCC2)cc1,inconclusive: 15.5%,–
O=C(NC1CCCCCC1)c1c(O)nc2sccn2c1=O,inconclusive: -6.42%,–
CC(C)[C@H](Nc1ccc(C(F)(F)F)cc1[N+](=O)[O-])C(=O)O,inactive,–
O=C(CCCN1CCc2[nH]c3ccc(F)cc3c2C1)c1ccc(F)cc1,–,"inconclusive: 14.1 µM [falling, partial curve, poor fit]"
CN1CCN(CC/C=C2/c3ccccc3Sc3ccc(S(=O)(=O)N(C)C)cc32)CC1,inconclusive: -21.2%,–
C[C@@]12C(=O)Nc3cc(F)ccc3C(=O)N1[C@H]1c3cc(Br)ccc3OC[C@@H]1[C@@H]2c1ccccc1,inconclusive: 5.39%,–
O=C(Nc1ccccc1)c1ccc(S(=O)(=O)Nc2cccc(O)c2)cc1,inconclusive: -6.49%,–
CCOC(=O)c1sc(NC(=O)CCSC)nc1C,–,"inconclusive: 25.1 µM [falling, single point]"
C#CCOCCOCCOCCNc1nc(N2CCN(C(=O)[C@H](CCC(=O)O)n3cc([C@@H](N)CCCCN)nn3)CC2)nc(N2CCN(C(=O)[C@H](CCCCN)n3cc([C@@H](N)CC(N)=O)nn3)CC2)n1,inactive,–
CC(C)Nc1nc(NC(N)=S)nc(NC(C)(C)C)n1,inconclusive: -0.913%,–
Cc1cc(C)c(S(=O)(=O)NC2CCN(Cc3ccccc3)CC2)c(C)c1,inconclusive: -0.0877%,–
O=C(CSc1nnc(CNC(=O)c2ccccc2F)o1)NCC1CCCO1 (stereo not given),inconclusive: -2.91%,–

SMILES,"activity change, negative = inhibition",Potency
Cn1c(NCCCN2CCOCC2)nc2c1c(=O)n(Cc1ccc(Cl)cc1)c(=O)n2C,inconclusive: 5.99%,–
CCCCNc1c(-c2ccc(OC)c(SC3CCCCC3)c2)nc2ccc(Cl)cn12,inconclusive: 0.149%,–
c1ccc2sc(Nc3nc4cc5c(cc4s3)OCO5)nc2c1,–,"inconclusive: 18.4 µM [falling, single point]"
O=[N+]([O-])c1ccc2oc(-c3cccc(O)c3)nc2c1,–,"inconclusive: 35.5 µM [falling, single point]"
COc1ccc(-c2nnn3c2nc(NCc2ccccc2)c2ccccc23)cc1,inactive,–
CN(C)/N=C/C=C1\CCC/C(=C/c2cccs2)C1=O,inactive,–
CSCCC(Nc1ccc(S(=O)(=O)N2CCOCC2)cc1[N+](=O)[O-])C(=O)OCC(=O)NCC(C)C (stereo not given),inconclusive: -0.616%,–
O=C(Nc1cccc2ccccc12)c1ccc(Cn2cc(Cl)cn2)cc1,inconclusive: -6.12%,–
COc1ccc(C2=CC(c3cc(OC)c(OC)c(OC)c3)NC(=S)N2)cc1 (stereo not given),inconclusive: -0.0982%,–
COc1cccc(CN(C)C(=O)c2[nH]c(C)c(C(C)=O)c2C)c1OC,inconclusive: 0.0813%,–
Cn1c(CC(=O)Nc2ccc(Cl)c(Cl)c2)n[nH]c1=S,inactive,–
CCOC(=O)Cn1nnc(-c2ccccc2)n1,inconclusive: 4.76%,–
CCCCCCCN(C(=O)CCl)c1ccccc1C,inconclusive: -12.1%,–
O=C(CCCCCn1c(=S)[nH]c2ccc(N3CCOCC3)cc2c1=O)NCc1ccc(Cl)cc1,inactive,–
COc1ccc(CNC(=O)CCCn2ncn3c(cc4occc43)c2=O)cc1,inconclusive: -1.45%,–
C=CCn1cc(C(=O)OC)c(=O)c2cc(S(=O)(=O)N3CCCCCC3)ccc21,inconclusive: 9.14%,–
O=C1CCCC1C(=O)Nc1ccc2ccccc2c1 (stereo not given),–,"inconclusive: 6.31 µM [rising, full curve]"
CC(=O)N1CCC(N(CCN2CCOCC2)C(=S)Nc2ccc(C)c(C)c2)CC1,inconclusive: 1.19%,–
CC(C)CNC(=S)NNC(=O)c1csc2c1CCCC2,–,"inconclusive: 29.1 µM [falling, single point]"
